In PubChem BioAssay AID504467 (National Center for Advancing Translational Sciences (NCATS), 2011):
Hit rate of the full screen: of about 330,000 compounds, about 7,700 (2.3%) were called active. Inconclusive means that the source gave no clear call. Such entries were picked first, then a sample of the others. The call rests on the fitted dose curve; in most records, active means well fitted inhibition curve with a large enough effect; inconclusive means small, poorly fitted or top-dose-only effect, or effect the other way; inactive means flat fitted curve, though single readings scatter. Where the call is inconclusive, the potency comes from a doubtful curve fit.

Experiment: qHTS screen for small molecules that inhibit ELG1-dependent DNA repair in human embryonic kidney (HEK293T) cells expressing luciferase-tagged ELG1; further: nearly all actives have a fitted effect of over 55% in size
Conditions: HEK293T ELG1-luciferase reporter, luminescence, 16 h, DNA damage induced by 5-fluorouridine; activity change, negative = inhibition: at 46.1 µM (top of the series)
Procedure, shortened: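 Luminescence from the luciferase reporter, measured 30 min after ONE-Glo reagent at room temperature, was the read-out. Beforehand, 2,000 cells per well were exposed for 16 hr at 37 °C to 5-fluorouridine together with compound or vehicle.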
On the % scale 0 is the no-effect control and ±100 the full control effect; potency means the concentration at half of the fitted maximal effect.

| Compound | activity change, negative = inhibition | Potency |
| --- | --- | --- |
| C/C(=N\Nc1ccccn1)c1ccc(C#N)cc1 | inactive: 29% |  |
| Cc1ccc(S(=O)(=O)N2CCC(C(=O)N3CCC3)CC2)cc1 |  | inconclusive: 11.6 µM [activator, partial curve] |
| CCn1c(=O)cc(OCC(=O)NCc2ccco2)c2ccccc21 |  | inconclusive: 16.4 µM [activator, partial curve] |
| CC(C)(C)c1ccccc1NC(=O)Cn1cnc2cc([N+](=O)[O-])ccc2c1=O |  | inconclusive: 11.6 µM [inhibitor, partial curve, poor fit] |
| Cc1ccccc1Nc1nc(N)nc(COC(=O)c2ccccc2)n1 |  | inconclusive: 14.6 µM [activator, partial curve] |
| COC(=O)c1ccc(NC(=O)CCS(=O)(=O)c2ccc3c(c2)NC(=O)C(C)S3)cc1 (centres undefined) |  | inconclusive: 2.31 µM [activator, partial curve, poor fit] |
| COCCN(CC(=O)Nc1ccccc1C(F)(F)F)C(=O)/C=C/c1cc(Cl)c2c(c1)OCO2 |  | inconclusive: 29.1 µM [inhibitor, single point] |
| O=C(c1ccc(Cl)c(S(=O)(=O)N2CCCCCC2)c1)N1CCCCC1 | inactive: -4.43% |  |
| Cc1cc(C)cc(NC(=O)c2sc3nc(C)cc(C)c3c2N)c1 |  | inconclusive: 2.31 µM [activator, partial curve] |
| N/C(=N\OC(=O)c1cccc(Cl)c1)c1ccccn1 |  | inconclusive: 2.31 µM [activator, full curve] |
| COc1ccc(-c2cc(=O)oc3c(C)c(OC(C)C(=O)NCc4ccccn4)ccc23)cc1 (centres undefined) |  | inconclusive: 0.164 µM [activator, single point] |
| Cc1cc2ccccc2n2c(SCC(=O)Nc3ccc(S(=O)(=O)N4CCCCC4)cc3)nnc12 |  | inconclusive: 29.1 µM [inhibitor, single point] |
| O=C(C[n+]1cc(-c2ccc(Cl)c(Cl)c2)n2c1CCC2)c1cccs1 |  | inconclusive: 18.3 µM [inhibitor, single point] |
| O=C(CSc1nc2c(cnn2-c2cccc(Cl)c2)c(=O)[nH]1)NCCC1=CCCCC1 |  | inconclusive: 0.82 µM [inhibitor, partial curve, poor fit] |
| Cc1ccccc1-c1nnn(CC(=O)N2CCN(S(=O)(=O)c3ccc(Cl)cc3)CC2)n1 |  | inconclusive: 20.6 µM [inhibitor, single point] |
| COc1ccccc1CNC(=O)c1ccc2nc3[nH]c4ccccc4c3nc2c1 |  | inconclusive: 0.13 µM [inhibitor, full curve, poor fit] |
| O=C(CN1CCN(Cc2cccc(F)c2)CC1)Nc1ccccc1F | inactive: -15.4% |  |
| C#CCOCCOCCOCCNc1nc(N2CCN(C(=O)[C@H](CCCN=C(N)N)n3cc(C(N)[C@H](C)CC)nn3)CC2)nc(N2CCN(C(=O)[C@H](CCCN=C(N)N)n3cc(C(N)[C@@H](C)CC)nn3)CC2)n1 (some centres undefined) |  | inconclusive: 23.1 µM [activator, partial curve, poor fit] |
| CCN(C(=O)COC(=O)c1cc([N+](=O)[O-])ccc1N1CCOCC1)C1CCS(=O)(=O)C1 (centres undefined) |  | inconclusive: 29.1 µM [activator, single point] |
| O=C(c1ccc(S(=O)(=O)Cc2cc(F)ccc2F)c([N+](=O)[O-])c1)N1CCCCC1 |  | inconclusive: 11.6 µM [inhibitor, partial curve] |
| CCOC(=O)c1nn(-c2ccc3ccccc3c2)cc1O |  | inconclusive: 18.3 µM [activator, partial curve] |
| COC(=O)Cn1ncn2c(cc3oc(C)cc32)c1=O |  | inconclusive: 11.6 µM [activator, partial curve] |

Part of the list above in order of molecular weight, smallest number first:

| Compound | activity change, negative = inhibition | Potency |
| --- | --- | --- |
| C/C(=N\Nc1ccccn1)c1ccc(C#N)cc1 | inactive: 29% |  |
| COC(=O)Cn1ncn2c(cc3oc(C)cc32)c1=O |  | inconclusive: 11.6 µM [activator, partial curve] |
| N/C(=N\OC(=O)c1cccc(Cl)c1)c1ccccn1 |  | inconclusive: 2.31 µM [activator, full curve] |
| CCOC(=O)c1nn(-c2ccc3ccccc3c2)cc1O |  | inconclusive: 18.3 µM [activator, partial curve] |
| Cc1cc(C)cc(NC(=O)c2sc3nc(C)cc(C)c3c2N)c1 |  | inconclusive: 2.31 µM [activator, partial curve] |
| CCn1c(=O)cc(OCC(=O)NCc2ccco2)c2ccccc21 |  | inconclusive: 16.4 µM [activator, partial curve] |
| Cc1ccccc1Nc1nc(N)nc(COC(=O)c2ccccc2)n1 |  | inconclusive: 14.6 µM [activator, partial curve] |
| O=C(C[n+]1cc(-c2ccc(Cl)c(Cl)c2)n2c1CCC2)c1cccs1 |  | inconclusive: 18.3 µM [inhibitor, single point] |
| COc1ccccc1CNC(=O)c1ccc2nc3[nH]c4ccccc4c3nc2c1 |  | inconclusive: 0.13 µM [inhibitor, full curve, poor fit] |
| O=C(c1ccc(Cl)c(S(=O)(=O)N2CCCCCC2)c1)N1CCCCC1 | inactive: -4.43% |  |
| O=C(c1ccc(S(=O)(=O)Cc2cc(F)ccc2F)c([N+](=O)[O-])c1)N1CCCCC1 |  | inconclusive: 11.6 µM [inhibitor, partial curve] |
| O=C(CSc1nc2c(cnn2-c2cccc(Cl)c2)c(=O)[nH]1)NCCC1=CCCCC1 |  | inconclusive: 0.82 µM [inhibitor, partial curve, poor fit] |
| COC(=O)c1ccc(NC(=O)CCS(=O)(=O)c2ccc3c(c2)NC(=O)C(C)S3)cc1 (centres undefined) |  | inconclusive: 2.31 µM [activator, partial curve, poor fit] |
| CCN(C(=O)COC(=O)c1cc([N+](=O)[O-])ccc1N1CCOCC1)C1CCS(=O)(=O)C1 (centres undefined) |  | inconclusive: 29.1 µM [activator, single point] |
| Cc1ccccc1-c1nnn(CC(=O)N2CCN(S(=O)(=O)c3ccc(Cl)cc3)CC2)n1 |  | inconclusive: 20.6 µM [inhibitor, single point] |
| Cc1cc2ccccc2n2c(SCC(=O)Nc3ccc(S(=O)(=O)N4CCCCC4)cc3)nnc12 |  | inconclusive: 29.1 µM [inhibitor, single point] |

More entries:

| Compound | activity change, negative = inhibition | Potency |
| --- | --- | --- |
| CC(OC(=O)c1cccc(S(=O)(=O)N2CCCCCC2)c1)C(=O)Nc1ccc(S(N)(=O)=O)cc1 (centres undefined) | inactive: -7.63% |  |
| O=C(Nc1ccc(S(=O)(=O)NCc2ccccc2)cc1)Nc1ccc2c(c1)OCO2 | inactive: 2.96% |  |
| Cc1nn(C)cc1/C=C1\CCC/C(=C\c2cn(C)nc2C)C1=O |  | inconclusive: 16.4 µM [inhibitor, partial curve, poor fit] |
| O=C(Nc1scc(-c2ccccc2)c1C(=O)O)c1ccco1 |  | inconclusive: 6.51 µM [activator, partial curve, poor fit] |
| ClCC1NCC(c2ccccc2Cl)c2c1[nH]c1ccccc21 (centres undefined) | inactive: -9.17% |  |
| COc1ccc(-c2cc(C(=O)Nc3ccc(C(N)=O)cc3)c3ccccc3n2)cc1OC |  | inconclusive: 16.4 µM [inhibitor, single point] |
| CC[C@H](CO)Nc1nc(Nc2cccc(Cl)c2)c2ncn(C(C)C)c2n1 |  | active: 7.3 µM |
| COc1ccccc1C(=O)N/N=C(\C)CC(=O)Nc1ccc(Nc2ccccc2)cc1 |  | inconclusive: 9.2 µM [inhibitor, partial curve] |
| CCOC(=O)C1CCN(CC(=O)Nc2c(C(=O)OC)n(C)c3cccc(C)c23)CC1 |  | inconclusive: 23.1 µM [inhibitor, partial curve, poor fit] |
| Cc1ccc(S(=O)(=O)Cc2ccc(C(=O)N3CCN(Cc4ccccc4)CC3)o2)cc1 |  | active: 18.4 µM |
| Cn1c(CCCNC(=O)c2ccccc2)nc2ccccc21 | inactive: -18.7% |  |
| CCOC(=O)c1sc2nc(CN3CCN(c4cccc(C(F)(F)F)c4)CC3)[nH]c(=O)c2c1C |  | inconclusive: 16.4 µM [activator, partial curve, poor fit] |
| Cc1cc([N+](=O)[O-])ccc1NC(=O)C1CCCO1 (centres undefined) |  | inconclusive: 10.3 µM [activator, partial curve] |
| CCOC(=O)c1nn(-c2cccc(C)c2)cc1C(=O)c1ccccc1 |  | inconclusive: 3.66 µM [activator, full curve, poor fit] |
| Cc1cc(NC(=O)c2ccc(Cl)cc2Cl)n(-c2ccccc2)n1 | inactive: 0.796% |  |
| COc1cc(OC)c2ccc(=O)oc2c1C(CCN1CCCC1)c1ccc2c(c1)OCO2 (centres undefined) | inactive: 6.51% |  |
| CCC1CCCCN1CCCNC(=O)c1ccc2nc(N3CCC(C)CC3)sc2c1 (centres undefined) |  | inconclusive: 0.0651 µM [activator, full curve, poor fit] |
| CN(c1ccccc1)C1CCCCC1NS(=O)(=O)c1ccc(Cl)cc1 (centres undefined) | inactive: -8% |  |
| CCC1=C(OC(=O)N(CC)CC)N2C(=O)OC(=NCC(=O)OC)[C@]2(Cc2ccccc2)[C@H]2C1=CC[C@H]1C(=O)N(c3ccccc3)C(=O)[C@H]12 |  | inconclusive: 23.1 µM [activator, single point] |
| COc1ccc(-n2nc(C(=O)NCC(=O)Nc3cc(Cl)c(OC)cc3OC)c3ccccc3c2=O)cc1 |  | inconclusive: 5.17 µM [inhibitor, full curve, poor fit] |
| COc1cccc(NC(=O)CCN2C(=O)C3CC=CCC3C2=O)c1 (centres undefined) |  | inconclusive: 29.1 µM [activator, single point] |
| CCCCC(=O)Nc1ccccc1C(C)C | inactive: -2.19% |  |

| Compound | activity change, negative = inhibition | Potency |
| --- | --- | --- |
| COc1ccc(OC)c(NC(=O)C(=O)NNC(=O)c2cccs2)c1 |  | inconclusive: 20.6 µM [activator, single point] |
| CCOC(=O)c1c(NC(=O)Cn2nnc3ccccc32)sc2c1CCC(C)C2 (centres undefined) |  | inconclusive: 29.1 µM [inhibitor, single point] |
| COc1ccc(/C=N/Nc2cn[nH]c(=O)c2Cl)cc1 |  | inconclusive: 23.1 µM [activator, partial curve] |
| COc1ccc(CN2CCNC(=O)C2CC(=O)NCCCn2cccn2)c(OC)c1 (centres undefined) | inactive: -1.45% |  |
| O=C(Nc1ccccc1)c1cnc[nH]1 |  | inconclusive: 20.6 µM [activator, partial curve] |
| CCN(Cc1ccccc1)C(=O)C(C)OC(=O)c1cc(S(=O)(=O)Nc2c(C)n(C)n(-c3ccccc3)c2=O)ccc1C (centres undefined) |  | inconclusive: 29.1 µM [inhibitor, single point] |
| COc1ccc(-c2cc(C(=O)NCc3cccnc3)no2)cc1 |  | inconclusive: 14.6 µM [activator, partial curve] |
| Cc1cc(C(=O)Cn2nc(C(=O)O)c3ccccc3c2=O)c(C)n1-c1cccc(C(F)(F)F)c1 | inactive: -12.2% |  |
| CC(O)CNc1nc2c(c(=O)n(Cc3ccc(Br)cc3)c(=O)n2C)n1C (centres undefined) |  | inconclusive: 11.6 µM [inhibitor, partial curve] |
| O=C(NCC(Cl)c1ccc2ccccc2c1)c1c(F)cccc1F (centres undefined) |  | inconclusive: 29.1 µM [inhibitor, single point] |
| O=C(NCc1ccccc1)c1ccc(/C=N/O)nc1 | inactive: -1.02% |  |
| CCn1nnc(NC(=O)c2sc3ccccc3c2Cl)n1 |  | inconclusive: 9.2 µM [activator, partial curve] |
| O=S(=O)(/N=C(\Sc1ccccc1)c1ccccc1)c1ccc(Cl)cc1 | inactive: -5.9% |  |
| COc1ccc(CCNC(=O)COc2ccc(S(=O)(=O)NCC(C)C)cc2Cl)cc1OC |  | inconclusive: 29.1 µM [inhibitor, single point] |
| CN1CCN(C(=O)CSc2nc(-c3cccs3)cc(-c3cccs3)c2C#N)CC1 |  | inconclusive: 17.8 µM [inhibitor, single point] |
| CC(C)Oc1ccc(C(=O)N(CN2CCCC2=O)c2ccc(F)cc2)cc1 |  | inconclusive: 18.4 µM [activator, partial curve, poor fit] |
| CSCC[C@H](NC(=O)OC(C)(C)C)C(=O)N/N=C/c1cccc2nccnc12 | inactive: -18.5% |  |
| COc1cc2c(c(OC)c1OC)C(c1ccc(C)cc1)CC(=O)O2 (centres undefined) |  | inconclusive: 16.4 µM [activator, single point] |
| CC1CC(=O)N(C)c2ccc([N+](=O)[O-])cc2N1 (centres undefined) |  | inconclusive: 14.6 µM [activator, single point] |
| O=C(COc1ccc2ccccc2c1)Nc1cccc(C(=O)Nc2ccccc2C(=O)O)c1 |  | inconclusive: 20.6 µM [activator, partial curve, poor fit] |
